Laboratory results taken from US9314509B2 (Ipsen Pharma S.A.S., priority 2009, dated 2016).

Assay: general procedure: Fmoc solid-phase peptide synthesis; Rink Amide MBHA resin (Polymer Laboratories), 0.91 mmol/g; HBTU/HOBT/DIPEA
Details: whole synthesis; for final HPLC purity: reverse-phase HPLC, C18 column (Vydac)
[1] = scale of the general procedure 0.20 mmoles

In the case of “Ac-Arg-cyclo(Cys-D-Ala-His-D-Phe-Arg-Trp-Cys)-NH2”, the isolated mass is reported as 28 mg, the “final HPLC purity” value (scale of the general procedure 0.20 mmoles, run 1) is reported as greater than 95% and the “final HPLC purity” value (scale of the general procedure 0.20 mmoles, run 2) is reported as 95.1%. The crude mass (scale 0.20 mmoles) was “˜100 mg” and the isolated yield [1] was 24%.

For “Ac-D-Arg-cyclo(Cys-D-Ala-His-D-Phe-Arg-Trp-Cys)-NH2”, the “final HPLC purity” value [1] was 99.2%.

With “Ac-Tyr-Arg-cyclo(Cys-D-Ala-His-D-Phe-Arg-Trp-Cys)-NH2” the “final HPLC purity” value [1] was 98.0%.

In the case of “hydantoin(Arg-Gly)-cyclo(Cys-Glu-His-D-Phe-Arg-Trp-Cys)-NH2”, the “final HPLC purity” value [1] is reported as 99.9%.
